PubChem BioAssay AID504786, Drosophila RNAi Screening Center – 2011

Test: 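Knock-downs reducing HIF reporter induction by the iron chelator DFO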 (primary screen)
System: Drosophila S2 cells with a stable HIF luciferase reporter
Reagent: long dsRNA against Drosophila genes, about 0.2 µg dsRNA per well of a 384-well plate
Timing: three days of knock-down, then 20 h of DFO before reading
Conditions: desferrioxamine (DFO) at 100 µM, an iron chelator that mimics hypoxia, for 20 h
Read-out: 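HIF reporter luminescence in cells given 100 µM DFO for 20 h, using the mouse ldh-a hypoxia-response element, scored as per-plate z-scores; higher means greater loss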
Direction: z-score: higher = stronger loss of HIF reporter signal
The screen tested about 21,000 reagents; shown is an unselected part of those with a known target gene and a result. 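Primary screen; positive scores mean lost reporter signal, so the sign may be inverted from the usual convention.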 Names joined by + are all predicted targets of the reagent. Further read-outs or replicates are left out here. Reagent sequences are not shown.

| predicted target | amplicon | z-score, replicate 1 | z-score, replicate 2 |
| --- | --- | --- | --- |
| CG13675 | DRSC08908 | -0.2 | 0.8 |
| CG13675 | DRSC10034 | 3.9 | 4.1 |
| CG11598 | DRSC14331 | -0.3 | -0.6 |
| Sara | DRSC04653 | -0.1 | -0.5 |
| lectin-21Cb | DRSC00355 | -0.2 | -0.7 |
| CG43347 | DRSC17982 | -0.5 | -0.8 |
| CG43347 | DRSC18446 | -0.4 | -0.8 |
| MstProx | DRSC12458 | 0 | -0.3 |
| MstProx | DRSC12601 | -0.4 | -0.3 |
| Not10 | DRSC14129 | -0.4 | -0.5 |
| nompA | DRSC06329 | -0.4 | -0.1 |
| sut1 | DRSC07700 | -0.3 | -0.1 |
| CG32591 | DRSC19063 | -0.2 | -0.3 |
| CG17712 | DRSC00266 | -0.2 | -0.2 |
| Ir51b | DRSC05540 | 0 | -0.3 |
| CG31041 | DRSC13951 | -0.1 | -0.2 |
| CG32213 + CG12519 + 825-Oak + 1 more | DRSC09615 | -0.1 | -0.8 |
| Obp56c | DRSC06552 | -0.4 | -0.7 |
| CG11983 | DRSC14458 | -0.2 | 0 |
| ND-75 | DRSC18686 | 0 | -0.3 |
| CG32106 | DRSC09219 | 0.1 | -0.1 |
| Obp56i | DRSC05812 | -0.5 | -0.2 |
| AhcyL1 | DRSC08647 | -0.3 | -0.6 |
| CG12985 | DRSC19505 | -0.4 | -0.8 |
| CG3164 | DRSC00572 | -0.4 | -0.6 |
| Cpr76Bd | DRSC11063 | -0.1 | 0 |
| Sry-delta | DRSC16869 | -0.1 | -0.6 |
| CG6431 | DRSC02956 | -0.4 | -0.3 |
| GLaz | DRSC07431 | 0 | 0.5 |
| Lgr3 | DRSC15704 | -0.2 | -0.1 |
| Lgr3 | DRSC15706 | 0.5 | 1.2 |
| Rcd4 | DRSC02597 | -0.4 | 0 |
| roq | DRSC10227 | -0.2 | 0 |
| CG8478 | DRSC16427 | -0.3 | -0.4 |

5 entries from above, arranged by “z-score, replicate 1”, descending:
| predicted target | amplicon | z-score, replicate 1 | z-score, replicate 2 |
| --- | --- | --- | --- |
| Sara | DRSC04653 | -0.1 | -0.5 |
| lectin-21Cb | DRSC00355 | -0.2 | -0.7 |
| CG11598 | DRSC14331 | -0.3 | -0.6 |
| CG43347 | DRSC18446 | -0.4 | -0.8 |
| CG43347 | DRSC17982 | -0.5 | -0.8 |
